According to patent publication US20220396618A1 (RESEARCH FOUNDATION FOR THE STATE UNIVERSITY OF NEW YORK, published 2022):
Results are given in words; binding and its absence hold for the method and conditions named. Some binding calls cover weakened binding; strength is not graded here.

Chains of the proteins cited; added tags and fusions are not shown. Residues count along the entry.
UniProt Q62151, residues 23-402: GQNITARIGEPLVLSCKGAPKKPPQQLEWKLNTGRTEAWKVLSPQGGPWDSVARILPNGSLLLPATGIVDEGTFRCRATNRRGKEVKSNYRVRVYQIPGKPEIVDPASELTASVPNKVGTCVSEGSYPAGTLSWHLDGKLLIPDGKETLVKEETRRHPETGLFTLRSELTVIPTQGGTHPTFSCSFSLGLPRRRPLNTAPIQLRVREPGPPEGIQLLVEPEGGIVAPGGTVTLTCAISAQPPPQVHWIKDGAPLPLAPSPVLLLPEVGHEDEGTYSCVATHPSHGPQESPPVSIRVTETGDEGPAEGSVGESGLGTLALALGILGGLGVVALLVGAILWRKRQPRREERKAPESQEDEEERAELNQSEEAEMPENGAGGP
UniProt Q15109, residues 23-404: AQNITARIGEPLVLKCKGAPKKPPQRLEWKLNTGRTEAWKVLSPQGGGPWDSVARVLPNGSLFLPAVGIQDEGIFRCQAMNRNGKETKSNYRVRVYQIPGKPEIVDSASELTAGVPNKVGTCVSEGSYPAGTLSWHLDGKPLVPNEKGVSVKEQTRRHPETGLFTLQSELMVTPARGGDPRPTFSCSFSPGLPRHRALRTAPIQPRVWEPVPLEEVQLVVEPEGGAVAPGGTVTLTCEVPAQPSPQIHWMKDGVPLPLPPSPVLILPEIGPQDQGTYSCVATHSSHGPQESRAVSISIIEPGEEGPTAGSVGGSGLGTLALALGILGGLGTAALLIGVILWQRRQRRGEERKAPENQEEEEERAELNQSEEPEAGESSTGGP

Columns and labels:
[1] = target: murine RAGE on cells and tissue (murine) (UniProt Q62151); assay: flow cytometry on murine 4T1 cells
[2] = target: human cell surface RAGE on tumor cells (human) (UniProt Q15109); assay: flow cytometry on human tumor cell lines
[3] = target: murine RAGE on cells and tissue (murine) (UniProt Q62151); assay: flow cytometry on murine 4T1 cells, 120 nM
[4] = target: human cell surface RAGE on tumor cells (human) (UniProt Q15109); assay: flow cytometry on MDA-MB-453, MDA-MB-468 and N87 cells, 120 nM

Measured: binding

B1: rabbit B2 mAb (antibody, V domains shown)
VH: QSVKESEGGLFKPTDTLTLTCTVSGFTISSYDMSWVRQAPGKGLEWIGAIDSSGSAHYASWARSRSTITRNTNLNTVTLKMTSLTAADTATYFCWNANIWGPGTLVTVSS
VL: AQVLTQTASPVSAAVGSTVTINCQASQNVYDNNHLSWYQQKRGQPPKLLIYYASALASGVSSRFKGSGSGTQFTLTINDVQCDDAATYYCLGSYDCSADCFAFGGGTEVVV
notes: Rabbit monoclonal antibody from a hybridoma; also called B2 mAbs; rabbit mAb B2
binds: all assays above
